Experimental data taken from PubChem BioAssay AID1347426 (Functional Genomics Laboratory (NCATS/FGL), 2020).
The whole screen tested about 31,000 sequences, of which about 1,400 (4.5%) were called active.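 How the source made its calls: active means median seed-adjusted z-score above 1 or below -1; inactive means the rest.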 The list shows a part of the results.

Assay: Novel Modifiers of Survival Motor Neuron (SMN) Protein: Gene Identification via Genome-wide siRNA Screen;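 further: luminescence tracks full-length SMN protein made from the SMN2 reporter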
Conditions: HEK293T SMN2-luciferase reporter, siRNA knockdown, 72 h; actives lie on both sides
Method in brief: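 Genome-wide siRNA screen (10418 genes, 3 siRNAs each, 1 pmol per well) by reverse transfection in HEK293T cells stably carrying an SMN2-luciferase reporter; luminescence after 72 hours, normalized to negative-control siRNA, log10-transformed, MAD-scored.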

Sequence	median seed-adjusted z-score
AACUAGAAGUCAUCAUUGATT against SLC8A3	inactive: -0.0434
AGACUAUGCGAAGAACUUATT against GAS7	inactive: 0.335
ACCUGUGUGCUGUACUUUUTT against TUBA1C	inactive: 0.157
ACAUUAUGGGCAUCGAGAATT against NR2F1	inactive: 0.259
GGCAUUGAAUUUAACUCAATT against SEMA3D	inactive: -0.0201
GCUUGACCUUUGAAUAUGATT against CRY2	inactive: 0.0209
GGAAGUCCAUUGACCCAAATT against SPAST	inactive: 0.0703
CUAUGUUUGUGACCAGUGUTT against ZNF689	inactive: 0.448
GCACUGCCUGCUGUACUCATT against CCL27	inactive: 0
GGCGAGAAGUUUAAACUCATT against DNAJA4	inactive: 0.145
GGCGGUACCUGCAGAUGAATT against ACOT7	inactive: 0.665
UGAAAAGACUUGAUGUGAATT against THAP6	inactive: 0.368
GGAUUCAUGAGUCUAUAUATT against SLC25A27	inactive: 0.0916
AGGAUGGAGUGGAGACAUATT against EMILIN1	inactive: 0
GCAUCUAAGAAGAUCAACATT against UTRN	inactive: 0.909
CCACGAUGCUGAGCUCCUATT against RNF112	inactive: -0.42
GCAAUACGCUUGAACUGAATT against MYO1E	inactive: -0.02
CAAAUCUGCUCAUCGAAAATT against MID1	inactive: -0.294
GGGUCUCAGAAGACGUGUATT against CRAT	active: -1.42
GCUAUACCGUAAUUACCUUTT against GPR18	inactive: -0.378
CAUCCCAUUUGAUAGAUUUTT against FCAR	inactive: -0.106
CGACAAAGAUUAUCACUUUTT against NPM1	inactive: 0.141

Sequence	median seed-adjusted z-score
AAUUCAGAGAGUAAAUCUATT against RBM9	inactive: 0.895
GAAACAGUACCUCUCCAUUTT against MSX2	inactive: -0.406
GGAGAAGGAUGGUAUCGUATT against ZKSCAN1	inactive: 0.229
CAUUGAAUGAUAUACGGUATT against CHN1	inactive: 2.1e-05
GGAAGAUCCUCAUCAGCGATT against KCNA10	inactive: 0.00887
CGAUGAACAUGUUAGACAUTT against AZIN1	active: -1.14
GGUAUGGUGUCUGGACUUATT against NRP1	inactive: 0.561
GGCAUACAAGGAGUCAGUATT against CSTF2T	inactive: 0.387
GAAUCUUUAUAUCAACGGATT against AKAP10	inactive: 0.0689
CUUCUACACUGACAUCUAATT against KATNAL1	inactive: -0.0327
GAUUGAUAGAAGCACCCUATT against DCC	inactive: 0.303
CAUCGAUGCUGCUUAUGCATT against HDC	inactive: -0.0146
CAACUACAAGGAACAGCUATT against OBFC2A	inactive: 0.406
CGGACAUCGCGUACAACCATT against FZD1	inactive: -0.163
GGGAGAUACCAGUUCAACATT against BTD	inactive: -0.165
CUGGAUGCCUGCUACCUGATT against HIF3A	inactive: -0.0855
GGAUUGAGCUAAAGGCAUUTT against GPR83	inactive: 0.105
GGACCAGUUUGAGAGUGAATT against CNOT3	inactive: 0.872
CAGCGAGAUUUAUGACUAUTT against AXL	inactive: -0.603
CGCUGUCAAGACCACCAAATT against LFNG	inactive: -0.13
AGAUCCUCCUGCAUAUUGATT against CYP4F2	inactive: -0.387
GCAGCGGCAUCAAACUCAATT against MKNK2	inactive: 0.281

Reprinted at random: 3 entries already listed
Sequence	median seed-adjusted z-score
GGACCAGUUUGAGAGUGAATT against CNOT3	inactive: 0.872
CAACUACAAGGAACAGCUATT against OBFC2A	inactive: 0.406
GGAAGAUCCUCAUCAGCGATT against KCNA10	inactive: 0.00887

(list continues)

Sequence	median seed-adjusted z-score
CAAACAAGACUGUUGAUGATT against CALB1	inactive: 0.191
CGUUUCGCAUCUUUCAUCATT against KRT82	inactive: 0.129
CCUGCACAGUACCAACAGATT against PPA1	inactive: -0.0865
GAGUAUACUGUGACAUGAATT against FGB	inactive: 0.481
AGAUGAGAACUCUAAGCAATT against CHRM2	inactive: 0.053
GGAUGACACCGUUCAAUCATT against LRRFIP1	inactive: -0.181
GGGUAUUGUUUGGACUUUUTT against GPR156	inactive: 0
CGAGUGUACCGAGUACAGATT against ELP3	inactive: 0.321
CGAAAUCCAUAGAGAUGAATT against CABC1	inactive: -0.197
GAAAGACACUGGGACUCGATT against SNRNP35	inactive: 0.172
CAAUCCUGACUCAAACUAATT against RAG2	inactive: 0.138
GCCUGUUCGAAAGCGCAAATT against UBR4	inactive: 0.602
CAAUGUUCCUCUACCUCUATT against MAL2	inactive: -0.604
GGCUAAGUCAUGAAGAUAUTT against CYP4V2	inactive: 0
GGCCGUAACCUCAACCGUUTT against SNX33	inactive: -0.246
GACUUUAGCCCAAUUAAUATT against MYLIP	inactive: 0.652
CUAUGGUAAUGUUUGCUUUTT against ZXDB	inactive: 0.186
ACAUGGACGUGAAAGGGAATT against WFIKKN2	inactive: -0.353
GACUCUCUGCUGAUCCGAATT against AK2	inactive: 0.418
AUGCUACUCUAAAACCCAATT against NEUROD4	inactive: 0.0349
GGAGCAGACGGUGACCAAATT against CIB3	inactive: 0.234
CGGUCCUUCUCAACAACAATT against MAP3K7IP1	inactive: 0

Sequence	median seed-adjusted z-score
GCGUAGACCUAGAUCUUUATT against NFE2L3	inactive: 0.118
GGGAUAUCUUCUAACCAUATT against IDS	inactive: -0.074
AGACGUACCGAGAGGAGUATT against PLA2G2F	inactive: 0.508
GAUUGUUCAGAAUAGCAAUTT against BPTF	inactive: -0.273
CCUCAACAGUGUCUACAUUTT against LYL1	inactive: -0.118
GCAGCGAAGGAAUAGGACATT against PRRX1	inactive: -0.172
CACUUUUAGUAUUUCGAAUTT against ZBTB5	inactive: 0.314
AGAGAUUAUAUGUAUGUAATT against HS3ST3B1	inactive: 0.937
CCCUCGAUGUGGUCAUGAATT against ZNRD1	inactive: -0.133
GGUGACAGGUUGAAAGUGATT against PYGB	inactive: -0.292
AGUACUUUGUAUUGGGAUATT against RCE1	active: -1.19
GGACAUCGAUCUCAGGGAATT against SYN2	inactive: -0.375
CAAUAUGAACUGUCAAUGUTT against ERAP2	inactive: 0.081
CAGGAGUGAUUAAACGGUUTT against GNAI3	inactive: 0.0656
GCACAGAUAUCCUCGUGUATT against ARL11	active: 1
CAGAUUAUUUGGAUCACAUTT against BRD1	inactive: 0.0644
CUAUGGACAUGAAAGGCUATT against EPHX2	inactive: 0
GGAUGAAGAACGAAUGGUATT against ENDOD1	inactive: -0.138
GUGCUGGAUUUGCACAACATT against LRRC55	inactive: 0.314
UGUUCUAUGUGAAGAAGGATT against KCNK1	inactive: 0.124
GAAGAAAACAUGUCUGUGATT against HRH3	inactive: 0.276
GCAUAAAAGUAUCAGACCATT against DDX18	inactive: 0.241

Quoted from the listing:
Under median seed-adjusted z-score, CAGGAGUGAUUAAACGGUUTT against GNAI3 reads inactive: 0.0656
Under median seed-adjusted z-score, CCCUCGAUGUGGUCAUGAATT against ZNRD1 reads inactive: -0.133

More records.

Sequence	median seed-adjusted z-score
GGGACUGGGAUUUACGUUATT against MTMR11	inactive: -0.0244
AGGCAUCCGUGAGACCAUUTT against DHPS	inactive: 0.0662
CCAAGUCUGUGAAAAUCCUTT against TRIM8	inactive: -0.296
CAUGGGCUCUAUUACGCUUTT against SPEN	active: -1.69
UGCUAUUGAUAAACUUUUUTT against TALDO1	inactive: 0.131
GCAUUUGGAUGGAUCAUGUTT against CD163	inactive: 0.021
GGACCUGUUCAGUCUGGAATT against BTNL9	inactive: 0.0189
CGGUUGAACUUCGAAAUAUTT against NF1	inactive: -0.36
GCAUGGAGCAGAUCGUGUUTT against ITPR3	active: -1.28
CGAAGGCCUUGUGAACAGATT against FOSL1	inactive: -0.431
GGAGAAAGGUAAAACGCAUTT against GPATCH2	inactive: 0.0828
CCCUGCAAAUUGGACAUGATT against SPINT4	inactive: 0.354
CGAUAGUGAGUAUAUCAGUTT against ZMYND8	inactive: -0.065
CGACCGUUCUUUCCCUGCATT against GJC2	inactive: 0
GGGAGGUACUCAGAAAACATT against CCR6	inactive: 0.103
AGAUGUUUCAUGUGCAGAATT against ZFAND5	inactive: 0.0289
CCCUGUUAUGUCAAGCUUATT against SYNPR	inactive: 0.257
GGUAACAUUCGAUCCAGAATT against SLC9A7	inactive: 0.349
GCAACACGGCGAUGGAGUUTT against ZACN	inactive: 0.065
ACAUGACCAUGGAAGCUGATT against HIPK4	inactive: 0
